Measured data: PubChem BioAssay AID1259424 (University of Nebraska Medical Center, 2018)

Aim: 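Find knockdowns that reproduce the expression shifts seen after KSR1 loss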 (primary screen)
System: human HCT116 colon cancer cells
Knock-down reagent: siRNA pool against human genes, 50 nM
Read-out: 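Log2 levels of six mRNAs (branched-DNA multiplex), adjusted by two reference genes and the non-targeting median, then scored against the average KSR1 knockdown pattern as Pearson r and euclidean distance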
Reading the numbers: mean correlation with KSR1 profile: higher = expression change more like KSR1 knockdown; mean distance from KSR1 profile: higher = expression change less like KSR1 knockdown
The deposit covers about 14,000 reagents; below is a random part of them. 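Higher correlation or smaller distance means closer resemblance to KSR1 loss; control wells, including KSR1 knockdowns, recur on many plates.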 Not all columns of the deposit are shown. Not given: the time to read-out.

The first 2 records, to show the layout:
| mean correlation with KSR1 profile | mean distance from KSR1 profile | Target gene |
| --- | --- | --- |
| -0.477 | 1.96 | IMPACT |
| 0.681 | 0.975 | HK3 |

Results, from the first entry:
| mean correlation with KSR1 profile | mean distance from KSR1 profile | Target gene |
| --- | --- | --- |
| -0.477 | 1.96 | IMPACT |
| 0.681 | 0.975 | HK3 |
| 0.483 | 1.92 | SIX6 |
| -0.183 | 1.73 | USP26 |
| 0.388 | 1.56 | MRPL20 |
| -0.308 | 2.73 | H2BC8 |
| 0.44 | 1.54 | PSG6 |
| 0.188 | 2.18 | VIPAS39 |
| 0.588 | 1.73 | MED18 |
| 0.387 | 3.07 | ST3GAL1 |
| 0.455 | 1.86 | VAX1 |
| -0.748 | 2.09 | FABP6 |
| -0.3 | 3.37 | PAICS |
| 0.507 | 2.11 | GEM |
| 0.108 | 2.43 | OR1G1 |
| -0.0272 | 2.62 | ANGPTL2 |
| -0.2 | 2.27 | ZNF160 |
| 0.224 | 2.06 | DDX10 |
| -0.751 | 1.55 | ZDHHC13 |
| 0.149 | 2.17 | ISY1 |
| -0.711 | 6.43 | SPATA31C2 |
| 0.371 | 2.82 | MRGPRX1 |
| 0.901 | 2.44 | C19orf44 |
| -0.293 | 2.33 | HOXA6 |
| 0.658 | 2.86 | GPR31 |
| 0.505 | 1.22 | EFCAB14 |
| 0.16 | 2.62 | APOLD1 |
| 0.241 | 2.57 | FBXL12 |
| -0.221 | 2.83 | ROBO3 |
| 0.37 | 1.36 | TSSK1B |
| -0.398 | 4.31 | EPG5 |
| 0.142 | 2.62 | TMEM167B |
| 0.183 | 2.27 | ZNF282 |
| 0.784 | 0.839 | HLA-DMA |
| -0.627 | 1.75 | ST3GAL2 |
| -0.309 | 2.14 | GRIA2 |
| 0.198 | 2.96 | FHL5 |
| -0.329 | 2.72 | GRB14 |
| 0.354 | 1.68 | SLC35B3 |
| -0.471 | 3.31 | CASQ1 |
| -0.261 | 2.18 | QRSL1 |
| -0.184 | 1.85 | HMBS |
| 0.0225 | 1.19 | MYO5B |
| -0.41 | 1.94 | TSPAN3 |
| -0.535 | 1.56 | CYP4F11 |
| -0.205 | 2.64 | NOP53 |
| -0.534 | 3.13 | IL23R |
| -0.0977 | 1.33 | CD209 |
| -0.259 | 2.29 | RPL7 |
| -0.232 | 1.4 | TPD52L3 |
| -0.784 | 2.06 | ADAM11 |
| -0.354 | 2.27 | VAT1 |
| -0.653 | 2.17 | NEDD8 |
| 0.732 | 2.88 | EMC6 |
| -0.372 | 1.47 | ATAD2B |
| -0.212 | 4.04 | SEC14L3 |
| 0.448 | 0.934 | TTR |
| -0.278 | 3.67 | CSNK1A1L |
| 0.759 | 3.1 | ALKBH5 |
| 0.745 | 4.34 | FUZ |
| 0.243 | 2.31 | ARRDC1-AS1 |
| 0.445 | 0.781 | IFNA14 |
| 0.571 | 1.32 | CDKN2B |
